In PubChem BioAssay AID504467 (National Center for Advancing Translational Sciences (NCATS), 2011):
Screen size: about 330,000 compounds; about 7,700 (2.3%) were called active. Inconclusive means that the source gave no clear call. Such entries were picked first, then a sample of the others. The call rests on the fitted dose curve; in most records, active means well fitted inhibition curve with a large enough effect; inconclusive means small, poorly fitted or top-dose-only effect, or effect the other way; inactive means flat fitted curve, though single readings scatter. A potency beside an inconclusive call is a rough fit, not a confirmed value.

Test: qHTS screen for small molecules that inhibit ELG1-dependent DNA repair in human embryonic kidney (HEK293T) cells expressing luciferase-tagged ELG1; further: nearly all actives have a fitted effect of over 55% in size
Conditions: HEK293T ELG1-luciferase reporter, luminescence, 16 h, DNA damage induced by 5-fluorouridine; series mostly up to 46.1 µM
Method in brief: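 Cells (2,000 per well) received 5-fluorouridine plus test compound or DMSO and were incubated 16 hr at 37 °C, 5% CO2. Luciferase activity was read by luminescence 30 min after ONE-Glo addition; signal suppression marked inhibition of damage-induced ELG1 function.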
Potency means the concentration at half of the fitted maximal effect.

Row | SMILES | Potency
1 | COc1cccc(/C=N/NC(=O)c2c(C)nc3ccc(Br)cn23)c1O | active: 2.06 µM
2 | O=C(CSc1nc(-c2ccccc2)cs1)NCc1ccco1 | inconclusive: 29.1 µM [activator, partial curve, poor fit]
3 | CC(C)(C)OC(=O)NCCc1n[nH]c(=S)o1 | inconclusive: 0.651 µM [inhibitor, full curve]
4 | CC(C)Sc1nc2c(c(=O)[nH]c(=O)n2C)n1CCc1ccccc1 | inconclusive: 10.3 µM [inhibitor, partial curve]
5 | Cn1c(=O)c2c(nc(N3CCCCCC3)n2Cc2cccc3ccccc23)n(C)c1=O | inconclusive: 16.4 µM [inhibitor, single point]
6 | CN(CCc1cn[nH]c1)C(=O)CC1C(=O)NCCN1Cc1ccccc1C(F)(F)F (stereo unspecified) | inactive
7 | CCn1c(SCC(=O)NC2CCCCC2)nnc1-c1cc2cccc(OC)c2o1 | inconclusive: 10 µM [inhibitor, partial curve, poor fit]
8 | O=C(NC(=S)N1CCN(C/C=C/c2ccccc2)CC1)c1ccc(Cl)nc1 | active: 18.3 µM
9 | CCN(CC)c1ccc(NC(=S)NC(=O)c2ccco2)cc1 | inconclusive: 2.59 µM [activator, partial curve]
10 | CN(C)c1ccc(/C=C/C(=O)c2ccccc2O)cc1 | inconclusive: 20.6 µM [activator, partial curve]
11 | COc1ccc(-c2cc(C(=O)NCc3cccnc3)no2)cc1OC | inconclusive: 29.1 µM [activator, single point]
12 | O=C(Nc1ccc(Cl)cn1)C1CCCN1S(=O)(=O)c1ccc(Cl)cc1 (stereo unspecified) | inconclusive: 22.4 µM [inhibitor, single point]
13 | Cc1cc(C)c(Cn2cnc3ccccc32)c(C)c1 | inactive
14 | Cc1ccc(C(=O)N2CCCCC2)cc1NC1=C(Cl)C(=O)N(Cc2ccccc2)C1=O | active: 18.3 µM
15 | O=C(NC1CC1)c1cc(-c2ccc(Br)cc2)nc2ccccc12 | inconclusive: 29.1 µM [inhibitor, single point]
16 | O=[N+]([O-])c1ccc(NCc2ccccc2N2CCC(CO)CC2)nc1 | inconclusive: 29.1 µM [inhibitor, single point]
17 | CC(C)(C)c1ccc(/C=C/C(=O)NC2=NCCS2)cc1 | inconclusive: 0.366 µM [activator, full curve]
18 | Cc1ccc(C(=O)Nc2ccc3c(c2)OCO3)cc1 | inconclusive: 1.64 µM [activator, full curve]
19 | O=C(COc1ccccc1Cl)c1ccc2c(c1)CCCC2 | inconclusive: 20.6 µM [activator, partial curve]
20 | O=C(c1ccc2ccccc2n1)N(CCO)Cc1ccccc1 | inactive
21 | CCCn1c(N)c(C(=O)CSc2nnc(-c3ccco3)n2Cc2ccccc2)c(=O)[nH]c1=O | active: 14.6 µM
22 | COC(=O)Cc1ccc(NC(=S)NCC(C)C)cc1 | inconclusive: 23.1 µM [activator, partial curve, poor fit]
23 | CN1CCC(CO)(Cc2ccccc2)CC1 | inactive
24 | COc1ccc(CSc2nnnn2-c2ccc(O)cc2)cc1F | inconclusive: 23.1 µM [inhibitor, single point]

Row | SMILES | Potency
25 | Cc1ccc(-n2nc(C)c3c(C)onc3c2=O)cc1 | inconclusive: 18.3 µM [activator, single point]
26 | N/C(=N\OC(=O)C1CCCCC1)c1cccnc1 | inactive
27 | Cc1ccc(CSc2nnc(CCNC(=O)OC(C)(C)C)o2)cc1 | inactive
28 | COc1ccc(OC)c(NC(=O)Nc2nnc(N3CCCCC3C)s2)c1 (stereo unspecified) | inactive
29 | COc1ccc(C(=O)Nc2ccc3ccccc3n2)c(OC)c1OC | inconclusive: 0.164 µM [activator, full curve, poor fit]
30 | COc1ccc(CCNc2nc(-c3sc(C)nc3C)cs2)cc1OC | active: 18.4 µM
31 | Cc1cccc2cc(CN(Cc3ccco3)S(=O)(=O)c3ccc4c(c3)OCCO4)c(=O)[nH]c12 | inconclusive: 16.4 µM [inhibitor, single point]
32 | COc1ccc(Cl)cc1NC(=O)CCc1nnc2ccc(N3CCC4(CC3)OCCO4)nn12 | inactive
33 | CSc1nc2ccc(NC(=O)c3ccc(=O)n(C)n3)cc2s1 | inconclusive: 20.6 µM [activator, partial curve]
34 | Cc1cc(C)n(CCc2nc(-c3ccc(-c4ccccc4)cc3)cs2)n1 | inconclusive: 18.4 µM [activator, partial curve]
35 | Cn1c(SCc2ccc([N+](=O)[O-])cc2)nc2c(c1=O)SCC2 | inconclusive: 29.1 µM [inhibitor, single point]
36 | COC(=O)c1cccc(NC(=O)Cc2ccccc2[N+](=O)[O-])c1C | inconclusive: 29.1 µM [inhibitor, single point]
37 | CC(=O)Nc1ccc2nc(NC(=O)COc3ccccc3C)sc2c1 | inactive
38 | CC(N=Cc1nc(-c2ccccc2)oc1O)c1ccccc1 (stereo unspecified) | inconclusive: 16.4 µM [activator, partial curve, poor fit]
39 | CCC(=O)Nc1ccc2c(c1)ncn2-c1ccc(OC)cc1 | inconclusive: 20.6 µM [activator, partial curve]
40 | Brc1ccccc1-c1nnc(COc2cccc3cccnc23)o1 | inconclusive: 20.6 µM [activator, partial curve, poor fit]
41 | COc1ccc(-c2n[nH]c(=S)o2)c(OC)c1 | inconclusive: 20.6 µM [activator, partial curve, poor fit]
42 | Cc1c(NC(=O)Nc2cccs2)cccc1[N+](=O)[O-] | inconclusive: 29.1 µM [inhibitor, single point]
43 | CC1=CC(C)(C)N2C(=O)C(=O)c3cc(OC(=O)c4ccco4)cc1c32 | inactive
44 | Cc1cnc([N+](=O)[O-])n1CCOC(=O)c1cccc(F)c1 | inactive
45 | O=C(CSc1ccccn1)Nc1ccc2[nH]c(=O)[nH]c2c1 | inconclusive: 20.6 µM [activator, partial curve, poor fit]
46 | CCC(c1nnnn1Cc1ccco1)N(Cc1ccccc1OC)Cc1cc2cc(C)ccc2[nH]c1=O (stereo unspecified) | inconclusive: 18.4 µM [inhibitor, single point]
47 | NNC(=O)C(=O)/C=C1\NC2(CCCC2)Cc2ccccc21 | inconclusive: 20.6 µM [inhibitor, partial curve, poor fit]
48 | COc1ccc(N(CC(=O)NCc2cccs2)S(=O)(=O)c2cccc(C)c2)cc1 | inactive

Row | SMILES | Potency
49 | CCOC(=O)C1=C(C)N=c2s/c(=C3/C(=O)Nc4ccccc43)c(=O)n2C1c1ccc(C)cc1 (stereo unspecified) | inactive
50 | CON(C)S(=O)(=O)c1cccc(C(=O)Nc2ccc(S(=O)(=O)NC3=NCCCCC3)cc2)c1 | inconclusive: 0.0517 µM [inhibitor, full curve, poor fit]
51 | CS(=O)(=O)c1cccc(C(=O)Nc2nnc(C3=COCCO3)o2)c1 | inactive
52 | O=C(NCc1cccs1)C1CCCN(c2ncccn2)C1 (stereo unspecified) | inactive
53 | CCN(Cc1ccccc1)C(=O)COC(=O)c1cc(=O)[nH]c2ccccc12 | inconclusive: 6.51 µM [activator, partial curve, poor fit]
54 | Nc1ccc(C(=O)N/N=C/c2cn(Cc3ccccc3F)c3ccccc23)cc1 | inactive
55 | COc1ccc(N2CCN(C(=O)c3ccc(CS(=O)Cc4ccc(Cl)cc4)o3)CC2)cc1 (stereo unspecified) | inconclusive: 20.6 µM [inhibitor, single point]
56 | O=C(c1ccccn1)N1CCN(S(=O)(=O)c2ccccc2)CC1 | inactive
57 | Cn1c(=O)c2c(nc(NCc3ccco3)n2Cc2ccc(Cl)cc2Cl)n(C)c1=O | inconclusive: 11.6 µM [inhibitor, partial curve]
58 | CC(C)c1ccc(NC(=O)c2n[nH]c(=O)c3ccccc23)cc1 | inconclusive: 1.83 µM [activator, full curve]
59 | CCOC(=O)N1CCN(C(=O)c2cc3c(-c4cccc(OC)c4)nn(C)c3s2)CC1 | inconclusive: 18.3 µM [inhibitor, partial curve]
60 | CCN(CC)c1ccc(/C=N/NC(=O)c2ccoc2C)c(O)c1 | inconclusive: 2.06 µM [activator, full curve]
61 | COc1ccc(Cl)cc1NC(=O)Nc1cc(C)on1 | inconclusive: 2.59 µM [activator, partial curve]
62 | COC(=O)c1ccc(C(=O)OC)c(NC(=O)COC(=O)c2ccc(OC)c(OC)c2OC)c1 | active: 5.8 µM
63 | Cc1ccc(CCNC(=O)CC(C)CC2=NS(=O)(=O)c3ccccc3N2)cc1 (stereo unspecified) | inactive
64 | CCOC(=O)CC(=O)CSc1ncnc2c1cnn2-c1ccccc1 | inconclusive: 6.51 µM [activator, partial curve]
65 | Cc1ccc(Cn2nc(C)c(C(=O)NCC(c3cccs3)N3CCOCC3)c2Cl)cc1 (stereo unspecified) | active: 5.62 µM
66 | O=C(CC(c1ccccc1)c1ccccc1)Nc1ccc(Cl)cn1 | active: 11.6 µM
67 | COCCCNc1nc2c(c(=O)[nH]c(=O)n2C)n1CC(O)COc1ccccc1C (stereo unspecified) | inactive
68 | Cc1ccc(/C=N/NC(=O)c2cc(C3CC3)nc3ccccc23)o1 | inconclusive: 4.11 µM [inhibitor, single point]
69 | Cc1cccc(NC(=O)c2ccc3nccnc3c2)c1C | inconclusive: 23.1 µM [inhibitor, single point]
70 | COc1ccc(OC)c(C(=O)CN2C(=O)C(=O)N(C3CCCC3)C2=O)c1 | inconclusive: 0.0164 µM [inhibitor, full curve, poor fit]
71 | N#CC1=C(S)N=C(N)C(c2nc(-c3ccccc3)cs2)C12CCCCC2 (stereo unspecified) | inconclusive: 29.1 µM [inhibitor, single point]

Reformatted as labelled records: part of the list above.
CC(C)c1ccc(NC(=O)c2n[nH]c(=O)c3ccccc23)cc1
  Potency: inconclusive: 1.83 µM [activator, full curve]
CCOC(=O)N1CCN(C(=O)c2cc3c(-c4cccc(OC)c4)nn(C)c3s2)CC1
  Potency: inconclusive: 18.3 µM [inhibitor, partial curve]
CCN(CC)c1ccc(/C=N/NC(=O)c2ccoc2C)c(O)c1
  Potency: inconclusive: 2.06 µM [activator, full curve]
COc1ccc(Cl)cc1NC(=O)Nc1cc(C)on1
  Potency: inconclusive: 2.59 µM [activator, partial curve]
